Laboratory results from article PMC6510285.
Results are given in words; binding and its absence hold for the method and conditions named. For part of these data: Binding seen in cells or lysates may run through a third protein.

Protein sequences, listed by entry. Tags and fused reporters are not part of them.
UniProt P61589: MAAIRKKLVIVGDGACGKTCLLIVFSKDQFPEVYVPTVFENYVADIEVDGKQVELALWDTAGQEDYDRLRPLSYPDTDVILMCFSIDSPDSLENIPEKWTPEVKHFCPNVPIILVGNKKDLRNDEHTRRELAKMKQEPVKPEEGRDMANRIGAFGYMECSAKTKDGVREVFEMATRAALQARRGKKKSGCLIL
UniProt P61586: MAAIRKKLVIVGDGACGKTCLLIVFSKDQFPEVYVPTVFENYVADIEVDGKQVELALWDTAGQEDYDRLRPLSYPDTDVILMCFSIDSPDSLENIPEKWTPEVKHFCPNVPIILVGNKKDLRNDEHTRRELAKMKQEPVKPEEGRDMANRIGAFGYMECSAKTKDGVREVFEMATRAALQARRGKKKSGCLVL

T1: full-length human recombinant NOX4 protein (human) (UniProt Q9NPH5)
T1 sequence: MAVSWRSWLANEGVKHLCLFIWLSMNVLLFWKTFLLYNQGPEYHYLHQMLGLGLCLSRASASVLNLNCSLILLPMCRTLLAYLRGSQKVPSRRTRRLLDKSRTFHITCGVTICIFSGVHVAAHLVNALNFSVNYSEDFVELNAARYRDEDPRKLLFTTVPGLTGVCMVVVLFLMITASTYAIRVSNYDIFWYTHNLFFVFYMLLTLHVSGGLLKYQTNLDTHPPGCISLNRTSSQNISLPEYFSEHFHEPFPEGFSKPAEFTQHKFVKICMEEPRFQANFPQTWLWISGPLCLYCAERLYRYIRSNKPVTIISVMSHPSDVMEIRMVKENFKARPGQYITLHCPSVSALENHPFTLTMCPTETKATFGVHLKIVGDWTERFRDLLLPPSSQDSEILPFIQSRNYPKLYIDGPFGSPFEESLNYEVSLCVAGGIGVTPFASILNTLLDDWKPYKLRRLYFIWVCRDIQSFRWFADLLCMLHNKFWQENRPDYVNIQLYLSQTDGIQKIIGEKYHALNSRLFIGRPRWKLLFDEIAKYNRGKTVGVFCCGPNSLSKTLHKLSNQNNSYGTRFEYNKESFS


How the values were obtained:
[1] = biological target: T1, full-length human recombinant NOX4 protein (human); test: SPR; Biacore, CM5 chip; NOX4 monoclonal antibody conjugated to the chip, full-length human NOX4 bound to the antibody, RhoA flowed at 0, 22.5, 45, 90, 180 and 360 μg/mL; regeneration with 10 mmol/L glycine pH 2.5; both purified
[2] = biological target: RhoA (rat (endogenous in HSC-T6)) (UniProt P61589); test: co-IP; lysate of NOX4^(GV 358Lv) HSC-T6 cells; 1 μg antibody overnight at 4°C, protein A agarose beads 4 h at 4°C, three washes with lysis buffer, western blot

Row | binding [1] | binding [2] | Molecule
1 | no binding (tested: 360 μg/mL) | – | full-length human recombinant RhoA protein (from UniProt P61586 1-193)
2 | – | no binding | p67^phox (protein, UniProt A7E3N2 1-527) MSLAEAIRLWNEGVQAADKKDWKGALEAFSEVQDPHSRICFNIGCMYTILDNLQEAEQAFTKSINRDKHLAVAYFQRGMLYYSMEKYRPASVGRKAALLFLGSYNLVARIIVGYPLSPGKVLYNIALMHAKKEEWKKAEEQLALATNMKSEPRHSKIDKAMESIWKRCPTSHLPLDPPQVTMALWFEEGGVGKRSVVASVVHQDNFSGFAPLQPQSAEPPPRPKTPEIFRALEGEAHRVLFGFVPETPEELQVMPGNIVFVLKKGSDNWATVMFNGQKGLVPCNYLEPVELRIHPQSQPQEDTSLESDIPPPPNSSPPERLQLSPGWCQQLGPLRCPPFLLHQEVKRSVPMPYMLKVHYKYTVVMETQLGLPYSQLRNMVSKKLELLPEHTKLSYQRRDSPELLLLSEESMKDAWAQVKNYCLTLWCEHTVGDQGFVDEPKEKENSDADNRTTEPQPKEGTQVVAIFSYDATQPEDLEFVEGDVILVLSHVNEEWLEGECKGKIGIFPKAFVEGCAAKNLEGTPREV
3 | – | no binding | NOX4 in NOX4^(GV 358Lv) HSCs (protein, UniProt Q924V1 1-578) MALSWRSWLANEGVKHLCLLVWLSLNVLLFWKTFLLYNQGPEYYYIHQMLGLGLCLSRASASVLNLNCSLILLPMCRTVLAYLRGSQKVPSRRTRRLLDKSKTLHITCGITICIFSGVHVAAHLVNALNFSVNYSEHFLALNAARYQNEDPRKLLFTTVPGLTGVCMVVVLFLMVTASTYAIRVSNYDIFWYTHNLFFVFYMLLLLHVSGGLLKYQTNLDTHPPGCISLNRTPSQNMSIADYVSEHFHGSLPGGFSKLEDHYQKTLVKICLEEPKFQAHFPQTWIWISGPLCLYCAERLYRCIRSNKPVTIISVINHPSDVMELRMIKENFKARPGQYIILHCPSVSALENHPFTLTMCPTETKATFGVHFKVVGDWTERFRDLLLPPSSQDSEILPFIQSRNYPKLYIDGPFGSPFEESLNYEVSLCVAGGIGVTPFASILNTLLDDWKPYKLRRLYFIWVCRDIQSFQWFADLLYVLHNKFWQENRPDFVNIQLYLSQTDGIQKIIGEKYHTLNSRLFIGRPRWKLLFDEIAKCNRGKTVGVFCCGPSSISKTLHNLSNRNNSYGTKFEYNKESFS
